The values that follow come from publication PMC9527117.

Amino acid sequences for entries named in this document (tags omitted).
UniProt Q2EJA0: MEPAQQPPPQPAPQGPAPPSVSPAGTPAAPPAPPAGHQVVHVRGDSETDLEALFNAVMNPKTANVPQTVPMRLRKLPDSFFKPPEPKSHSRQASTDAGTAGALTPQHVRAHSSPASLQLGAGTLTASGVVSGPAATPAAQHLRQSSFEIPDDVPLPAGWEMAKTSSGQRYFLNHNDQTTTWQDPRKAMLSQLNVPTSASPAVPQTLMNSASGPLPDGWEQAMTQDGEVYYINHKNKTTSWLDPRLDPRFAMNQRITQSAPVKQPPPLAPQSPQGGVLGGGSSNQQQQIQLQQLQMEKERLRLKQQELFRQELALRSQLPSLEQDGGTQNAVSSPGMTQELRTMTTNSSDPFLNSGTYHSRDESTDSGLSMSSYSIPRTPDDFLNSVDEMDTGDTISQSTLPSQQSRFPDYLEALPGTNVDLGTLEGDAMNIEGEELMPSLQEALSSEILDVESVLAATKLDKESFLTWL
UniProt P63104: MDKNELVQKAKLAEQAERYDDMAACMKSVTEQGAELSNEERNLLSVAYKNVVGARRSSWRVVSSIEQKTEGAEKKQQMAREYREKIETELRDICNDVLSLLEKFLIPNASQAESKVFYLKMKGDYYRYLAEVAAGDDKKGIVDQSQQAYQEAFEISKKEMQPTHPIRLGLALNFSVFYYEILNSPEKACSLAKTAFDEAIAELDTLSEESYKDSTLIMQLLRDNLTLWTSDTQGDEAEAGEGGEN

Results are given in words; binding and its absence hold for the method and conditions named. Binding seen in cells or lysates may run through a third protein. Some results given as binding are weak or reduced against the parent protein; the word gives no strength.

This test concerns the target YAP phosphorylated at serine 127 (rat (endogenous in rat podocytes)) (UniProt Q2EJA0). Nature of the test: co-IP; rat podocytes after intervention with shGFP-sEVs or sh14-3-3ζ-sEVs; cell pellet in Co-IP buffer (Pierce), supernatant with the indicated primary antibodies at 4°C overnight, 30 μL protein A/G gel at 4°C for 4 h, 4 washes, western blot; which protein was precipitated is not told.

With 14-3-3ζ (from UniProt P63104 1-245), the binding entry is on record as “binds”.
